From publication PMC7242363
No constants are given. Whether binding was seen depends on the method and setting. In cells and extracts the contact can be indirect. Some binding calls cover weakened binding; strength is not graded here.

Sequences of proteins named here, by UniProt entry; tags and fusion partners are left off.
UniProt P29067: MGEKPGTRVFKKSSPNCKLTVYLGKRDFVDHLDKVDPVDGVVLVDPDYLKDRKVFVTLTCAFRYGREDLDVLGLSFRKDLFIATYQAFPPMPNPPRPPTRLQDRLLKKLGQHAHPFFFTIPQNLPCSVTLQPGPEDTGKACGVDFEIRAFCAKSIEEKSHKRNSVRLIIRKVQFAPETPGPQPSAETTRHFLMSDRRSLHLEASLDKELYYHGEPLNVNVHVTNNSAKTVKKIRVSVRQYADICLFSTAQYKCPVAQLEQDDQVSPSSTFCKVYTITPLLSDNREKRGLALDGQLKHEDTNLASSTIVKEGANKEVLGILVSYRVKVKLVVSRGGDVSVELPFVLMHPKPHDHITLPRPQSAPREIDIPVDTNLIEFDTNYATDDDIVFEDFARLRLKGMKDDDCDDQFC

Target: T1, type III TGF-β1 receptor (not stated (endogenous in HSCs: rat HSC-T6 or human LX-2)) (UniProt P26342)
T1 sequence: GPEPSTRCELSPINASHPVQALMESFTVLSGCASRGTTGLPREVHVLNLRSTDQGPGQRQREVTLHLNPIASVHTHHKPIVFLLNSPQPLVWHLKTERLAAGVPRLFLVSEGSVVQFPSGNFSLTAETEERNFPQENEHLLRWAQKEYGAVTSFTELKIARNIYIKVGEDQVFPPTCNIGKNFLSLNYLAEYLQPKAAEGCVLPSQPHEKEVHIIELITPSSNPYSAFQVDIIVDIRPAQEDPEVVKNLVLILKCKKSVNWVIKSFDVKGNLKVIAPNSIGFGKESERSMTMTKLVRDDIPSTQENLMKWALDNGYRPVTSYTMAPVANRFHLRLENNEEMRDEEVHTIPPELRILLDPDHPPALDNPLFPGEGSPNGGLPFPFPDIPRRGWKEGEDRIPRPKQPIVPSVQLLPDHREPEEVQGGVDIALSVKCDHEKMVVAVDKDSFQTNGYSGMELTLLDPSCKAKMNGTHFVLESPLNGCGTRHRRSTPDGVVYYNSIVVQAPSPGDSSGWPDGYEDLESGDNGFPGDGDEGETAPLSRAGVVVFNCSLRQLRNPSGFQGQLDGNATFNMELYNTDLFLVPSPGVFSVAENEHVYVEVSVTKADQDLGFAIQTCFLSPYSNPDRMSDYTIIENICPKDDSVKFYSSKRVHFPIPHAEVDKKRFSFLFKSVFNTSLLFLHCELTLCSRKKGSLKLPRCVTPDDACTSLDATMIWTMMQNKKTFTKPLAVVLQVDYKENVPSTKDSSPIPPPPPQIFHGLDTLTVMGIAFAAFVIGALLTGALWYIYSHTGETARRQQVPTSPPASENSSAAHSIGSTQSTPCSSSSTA
Test: co-IP; HSC lysate in RIPA lysis buffer with protease inhibitors; IP with anti-TβRIII antibody, Western blot with anti-β-arrestin2 antibody; cells with or without TGF-β1 treatment, and with β-arrestin2 siRNA

β-arrestin2 (from UniProt P29067 1-410) was tested, and the binding was “binds”.
